Data from paper PMC11317515.

Amino acid sequences for entries named in this document (tags omitted). A change or cut given only in a name is not applied to a line headed by its entry.
UniProt P12844: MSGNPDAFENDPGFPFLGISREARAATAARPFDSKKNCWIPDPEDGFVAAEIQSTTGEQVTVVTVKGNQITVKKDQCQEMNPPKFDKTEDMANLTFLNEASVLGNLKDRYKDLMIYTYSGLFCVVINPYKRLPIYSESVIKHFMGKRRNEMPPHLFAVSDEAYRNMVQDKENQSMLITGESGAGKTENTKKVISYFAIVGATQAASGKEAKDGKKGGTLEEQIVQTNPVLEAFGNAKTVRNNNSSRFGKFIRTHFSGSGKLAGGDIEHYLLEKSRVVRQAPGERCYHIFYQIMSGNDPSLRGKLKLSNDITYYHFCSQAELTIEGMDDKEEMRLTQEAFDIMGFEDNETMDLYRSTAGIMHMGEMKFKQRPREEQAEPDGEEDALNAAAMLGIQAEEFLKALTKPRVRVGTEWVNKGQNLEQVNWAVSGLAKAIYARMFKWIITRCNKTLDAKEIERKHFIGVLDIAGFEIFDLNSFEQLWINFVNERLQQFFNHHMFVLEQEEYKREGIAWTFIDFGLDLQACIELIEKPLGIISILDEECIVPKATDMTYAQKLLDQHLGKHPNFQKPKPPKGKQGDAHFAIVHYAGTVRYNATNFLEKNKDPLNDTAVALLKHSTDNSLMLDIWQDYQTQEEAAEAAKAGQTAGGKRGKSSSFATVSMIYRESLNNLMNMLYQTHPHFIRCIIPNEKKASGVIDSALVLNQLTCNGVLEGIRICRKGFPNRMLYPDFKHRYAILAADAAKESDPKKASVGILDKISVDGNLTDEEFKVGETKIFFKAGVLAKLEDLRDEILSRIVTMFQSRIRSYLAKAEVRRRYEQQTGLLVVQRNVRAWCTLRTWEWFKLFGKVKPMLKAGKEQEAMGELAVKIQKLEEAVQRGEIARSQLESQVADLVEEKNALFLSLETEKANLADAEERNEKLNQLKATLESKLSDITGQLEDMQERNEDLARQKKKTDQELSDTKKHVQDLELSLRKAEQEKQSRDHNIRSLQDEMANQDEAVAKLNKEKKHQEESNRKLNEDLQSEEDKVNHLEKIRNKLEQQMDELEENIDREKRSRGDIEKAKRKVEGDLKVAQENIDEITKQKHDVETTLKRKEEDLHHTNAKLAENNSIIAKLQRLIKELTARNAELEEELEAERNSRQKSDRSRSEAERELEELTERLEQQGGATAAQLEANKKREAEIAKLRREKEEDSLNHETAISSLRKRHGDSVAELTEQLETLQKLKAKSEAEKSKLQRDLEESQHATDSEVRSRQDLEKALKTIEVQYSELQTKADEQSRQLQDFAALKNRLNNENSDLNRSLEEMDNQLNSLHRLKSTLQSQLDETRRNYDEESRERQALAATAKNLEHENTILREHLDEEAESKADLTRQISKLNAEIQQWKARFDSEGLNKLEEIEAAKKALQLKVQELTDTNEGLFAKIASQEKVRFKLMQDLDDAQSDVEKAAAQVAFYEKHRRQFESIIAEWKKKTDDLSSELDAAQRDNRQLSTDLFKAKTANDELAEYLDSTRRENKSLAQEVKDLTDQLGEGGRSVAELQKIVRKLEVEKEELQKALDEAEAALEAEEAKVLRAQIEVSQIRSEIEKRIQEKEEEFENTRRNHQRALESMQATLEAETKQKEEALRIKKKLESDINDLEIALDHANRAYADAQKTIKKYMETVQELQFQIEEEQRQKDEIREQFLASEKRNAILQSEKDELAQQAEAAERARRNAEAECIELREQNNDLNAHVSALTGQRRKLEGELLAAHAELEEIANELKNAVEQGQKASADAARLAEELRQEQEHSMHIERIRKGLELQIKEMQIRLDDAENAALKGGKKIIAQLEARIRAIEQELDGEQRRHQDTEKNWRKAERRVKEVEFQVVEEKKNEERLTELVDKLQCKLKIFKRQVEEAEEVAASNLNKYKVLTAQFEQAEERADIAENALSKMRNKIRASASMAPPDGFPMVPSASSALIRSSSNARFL
UniProt P02566: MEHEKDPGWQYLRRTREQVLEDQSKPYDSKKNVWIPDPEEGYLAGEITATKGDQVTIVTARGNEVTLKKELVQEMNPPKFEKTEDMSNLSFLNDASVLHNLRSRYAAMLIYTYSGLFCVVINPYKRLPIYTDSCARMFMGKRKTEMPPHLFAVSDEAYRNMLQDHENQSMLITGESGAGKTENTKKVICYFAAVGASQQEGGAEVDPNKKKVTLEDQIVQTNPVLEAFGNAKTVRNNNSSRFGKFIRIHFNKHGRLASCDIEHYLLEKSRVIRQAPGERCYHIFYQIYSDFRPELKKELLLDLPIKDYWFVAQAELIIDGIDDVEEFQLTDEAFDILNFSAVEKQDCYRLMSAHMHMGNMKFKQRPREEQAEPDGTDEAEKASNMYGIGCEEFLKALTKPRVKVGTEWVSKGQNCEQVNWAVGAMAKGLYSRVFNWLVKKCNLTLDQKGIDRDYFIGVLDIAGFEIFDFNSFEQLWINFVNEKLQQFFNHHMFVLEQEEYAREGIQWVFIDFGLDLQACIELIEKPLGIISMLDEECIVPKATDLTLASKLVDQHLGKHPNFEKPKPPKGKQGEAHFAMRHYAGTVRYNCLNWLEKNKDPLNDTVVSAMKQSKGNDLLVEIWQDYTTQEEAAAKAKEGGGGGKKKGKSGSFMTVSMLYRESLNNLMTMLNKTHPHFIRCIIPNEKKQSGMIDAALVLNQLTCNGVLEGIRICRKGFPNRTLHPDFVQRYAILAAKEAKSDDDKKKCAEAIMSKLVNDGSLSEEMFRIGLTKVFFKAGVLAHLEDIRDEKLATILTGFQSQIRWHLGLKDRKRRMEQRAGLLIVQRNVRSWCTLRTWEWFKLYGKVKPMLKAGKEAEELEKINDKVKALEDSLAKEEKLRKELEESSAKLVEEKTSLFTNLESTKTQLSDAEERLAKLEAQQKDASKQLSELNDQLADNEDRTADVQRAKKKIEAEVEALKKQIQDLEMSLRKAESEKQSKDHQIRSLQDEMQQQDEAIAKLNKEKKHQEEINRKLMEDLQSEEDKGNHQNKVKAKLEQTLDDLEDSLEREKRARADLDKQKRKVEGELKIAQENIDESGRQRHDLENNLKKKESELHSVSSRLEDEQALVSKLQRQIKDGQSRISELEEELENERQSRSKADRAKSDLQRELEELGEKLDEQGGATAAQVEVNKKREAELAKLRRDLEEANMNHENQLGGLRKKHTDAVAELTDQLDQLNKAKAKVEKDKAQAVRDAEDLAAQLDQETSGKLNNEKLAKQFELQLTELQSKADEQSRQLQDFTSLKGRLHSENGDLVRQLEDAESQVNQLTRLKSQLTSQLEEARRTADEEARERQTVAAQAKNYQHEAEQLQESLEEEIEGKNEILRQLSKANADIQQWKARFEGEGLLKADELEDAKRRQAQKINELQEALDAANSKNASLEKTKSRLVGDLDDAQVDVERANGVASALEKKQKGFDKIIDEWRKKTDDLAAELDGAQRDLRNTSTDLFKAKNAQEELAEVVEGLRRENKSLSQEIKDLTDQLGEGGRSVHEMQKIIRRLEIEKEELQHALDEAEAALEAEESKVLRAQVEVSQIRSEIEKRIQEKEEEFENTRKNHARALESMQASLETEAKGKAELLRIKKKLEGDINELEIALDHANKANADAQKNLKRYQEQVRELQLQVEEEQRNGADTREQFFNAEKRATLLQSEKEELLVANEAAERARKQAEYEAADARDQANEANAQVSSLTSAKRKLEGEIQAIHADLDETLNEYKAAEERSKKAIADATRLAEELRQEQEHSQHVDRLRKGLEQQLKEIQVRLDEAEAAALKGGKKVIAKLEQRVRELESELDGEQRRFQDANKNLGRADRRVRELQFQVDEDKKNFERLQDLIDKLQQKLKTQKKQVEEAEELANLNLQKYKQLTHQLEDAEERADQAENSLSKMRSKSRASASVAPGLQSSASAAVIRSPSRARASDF
UniProt O16266: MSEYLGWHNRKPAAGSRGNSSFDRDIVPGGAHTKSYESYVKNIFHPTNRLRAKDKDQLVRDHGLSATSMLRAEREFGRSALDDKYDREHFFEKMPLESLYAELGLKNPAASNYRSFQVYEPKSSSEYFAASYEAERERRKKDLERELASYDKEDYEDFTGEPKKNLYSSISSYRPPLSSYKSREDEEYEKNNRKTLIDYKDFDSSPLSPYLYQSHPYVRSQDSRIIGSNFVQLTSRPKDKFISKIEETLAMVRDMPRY

T1: UNC-45-miniTurbo-HA (C. elegans) (UniProt G5EG62)
T1 sequence: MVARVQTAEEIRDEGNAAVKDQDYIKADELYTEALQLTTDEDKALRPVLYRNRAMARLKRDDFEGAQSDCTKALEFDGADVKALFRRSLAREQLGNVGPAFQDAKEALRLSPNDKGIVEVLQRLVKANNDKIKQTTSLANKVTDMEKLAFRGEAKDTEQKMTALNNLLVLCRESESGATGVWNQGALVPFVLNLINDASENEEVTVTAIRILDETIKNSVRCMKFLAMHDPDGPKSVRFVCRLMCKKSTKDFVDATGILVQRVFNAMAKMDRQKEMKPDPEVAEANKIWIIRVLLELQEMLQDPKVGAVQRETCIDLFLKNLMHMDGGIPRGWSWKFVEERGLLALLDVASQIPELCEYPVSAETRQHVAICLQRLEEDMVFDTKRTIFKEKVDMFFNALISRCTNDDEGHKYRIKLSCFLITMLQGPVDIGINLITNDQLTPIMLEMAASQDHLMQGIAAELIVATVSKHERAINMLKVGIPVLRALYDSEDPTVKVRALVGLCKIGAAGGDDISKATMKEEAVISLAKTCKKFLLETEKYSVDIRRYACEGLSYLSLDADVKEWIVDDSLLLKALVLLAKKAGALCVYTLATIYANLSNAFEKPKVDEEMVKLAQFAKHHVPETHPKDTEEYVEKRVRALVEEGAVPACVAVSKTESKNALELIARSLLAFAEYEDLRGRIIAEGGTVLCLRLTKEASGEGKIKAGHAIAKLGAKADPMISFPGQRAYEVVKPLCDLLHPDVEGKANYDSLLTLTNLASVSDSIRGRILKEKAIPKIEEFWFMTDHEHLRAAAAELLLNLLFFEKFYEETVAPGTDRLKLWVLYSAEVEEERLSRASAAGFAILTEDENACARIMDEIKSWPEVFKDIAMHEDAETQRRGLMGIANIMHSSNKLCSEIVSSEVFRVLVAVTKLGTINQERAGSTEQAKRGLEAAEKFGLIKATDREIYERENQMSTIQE


Target: T1, UNC-45-miniTurbo-HA (C. elegans)
Assay: proximity labelling; UNC-45-miniTurbo-HA in body wall muscle of living worms; biotinylated proteins pulled down with streptavidin beads, label-free mass spectrometry; ratios against free TurboID (muscle cytosol) and UNC-45-FLAG (negative control); non-stress, and OptIMMuS mechanical stress (13 5-s blue light pulses, with or without ATR)

binding	Molecule
binds	MYO-3 (from UniProt P12844 1-1969)
binds	UNC-54 (myosin heavy chain B, MHC B) (from UniProt P02566 1-1963)
binds	F40A3.6 (endogenous) (from UniProt O16266)
binds	MLC-3 (protein, UniProt P53014 1-153) MAPPSQDVLKEIFNLYDEELDGKIDGTQVGDVARAAGLKPTQAMVTKAAGQEFKRKGEKRLTFEEWLPMYEQLAKEKEQGTYADFYEGLKVFDKEETGKILAAELRHILLALGERLSADEADELLKGVEDGEGMVKYEDFIKKVLAGPFPDQD
binds	HSP-16.11 (protein, UniProt P34696 1-145) MSLYHYFRPAQRSVFGDLMRDMAQMERQFTPVCRGSPSESSEIVNNDQKFAINLNVSQFKPEDLKINLDGHTLSIQGEQELKTEHGYSKKSFSRVILLPEDVDVGAVASNLSEDGKLSIEAPKKEAIQGRSIPIQQAPVEQKTSE
binds	HSP-16.2 (protein, UniProt P06582 1-145) MSLYHYFRPAQRSVFGDLMRDMALMERQFAPVCRISPSESSEIVNNDQKFAINLNVSQFKPEDLKINLDGRTLSIQGEQELKTDHGYSKKSFSRVILLPEDVDVGAVASNLSEDGKLSIEAPKKEAVQGRSIPIQQAIVEEKSAE
binds	NHL-1 (endogenous) (protein, UniProt Q03601 1-974) MSSSPQNEAEAREKMRELMSRPPSSRPADFVNPLEKIEQLLTCPICLDRYKQPKLLPCQHTFCYPCLESCADTLHRNLKCPECRAEHNIPYDGVKAFQPNYTLTGFLEIHLQATPESAAEIEEYIHRYNLERCKICDEKADCEPCAHCDRKACKECRQTHMDMLKRDMSRLLNQVKRLANRITEASDNLSKGVDMMTMNCETTKAEIKEYFHRYQRDLKKKEDNFLMEVDTFQATETRNMSNLRDVLEIESSNMSEAVSRLDAAIKGECSIEDSELVRMKNTFTEGLEYLRNFQPDADELFNRKLRFSAGDDAAKLPAAITTSGELCVLVPQFSGRYLPLEQSYLPRPFRLPLESDSYRVKSDERASMRDREADRTSSRHSHRNPEPDESSIRYRRRQQLEDEAWNRLRNSSAAPSLLTTSVTADSSSRTSPWAADRVTRSVEPTKSRPTSLIVPNTETPRTVSPASKPPLPPQSVERVERTEDASPAPLPQLPIRKPPLPRQQSSNDDSLNEKVETIRRAHQQRQDASRAASRAVSSEESEGEDFPVSTNRGRIRIVCRAASVNRDDGLMSMIPGTGTIINVPPPQHQLPASAPITNGTSEQVAIPVTHFTGEEDESDIVVPAWLQRRRQRFQRSRTNPDIQAQFTSARVQQLLAERQSRLDSSTTTDEEKEKLAVLRQRGRSASREAGEWRARGRPRAVFGRKGAKDGELNWPRGICALSGGLVATCDSSNHRVCVFDKDGKFVRQFGGYGAGAGQLDSAAGLASSKLRVIVSDRYNHRISVFGLEGDHLFSFGGHGQGNAKFNNPWGVAVDDLGSIYVADKDNHRVQVFDKNGQFIAKFGSFGHLPGQLNSPLFIAVSRVTHHVYVSDSSNHRISVFDPHGVHLFSFGEEGFHGGQFKFPRGIAIDSQENLIIADSGNNRIQVFDAQGQFVSSFGTWGGGAGQLKGVEDVCVTADGSIVVTDRENHRIQIF
binds	HSP-16.41 (protein, UniProt P06581 1-143) MLMLRSPYSDSNALDHFLDELTGSVQFPYWRNADHNSFNFSDNIGEIVNDESKFSVQLDVSHFKPENLKIKLDGRELKIEGIQETKSEHGYLKRSFSKMILLPEDADLPSVKSAISNEGKLQIEAPKKTNSSRSIPINFVAKH
binds	HSP-16.48 (protein, UniProt P02513 1-143) MLMLRSPFSDSNVLDHFLDEITGSVQFPYWRNADHNSFNFSDNIGEIVNDESKFSVQLDVSHFKPEDLKIELDGRELKIEGIQEKKSEHGYSKRSFSKMILLPEDVDLTSVKSAISNEGKLQIEAPKKTNSSRSIPINFVAKH

No constants are given. Whether binding was seen depends on the method and setting. In cells and extracts the contact can be indirect. These calls come from enrichment with a bait or labelling near it, and not all partners need be listed. Tags and fused reporters may be left off the sequences shown.
